These are yes or no findings as the source states them, for the method shown. Binding seen in cells or lysates may run through a third protein. A result given as binding can be weak or reduced; the word gives no strength.
Legend:
[1] = target: receptor-interacting serine/threonine kinase (RIPK) 1, rat (rat (endogenous in PC12 and in rat primary hippocampal neurons)) (UniProt D3ZYL0); test: co-IP; lysates of Hrs-silenced PC12 cells (500 μg total protein) in TNE buffer (50 mM Tris-HCl pH 7.4, 150 mM NaCl, 0.5% NP-40, 1 mM EDTA); first antibody overnight at 4 °C, protein-G-agarose 2 h, 4 washes; Western blot; precipitating antibody not named
[2] = target: receptor-interacting serine/threonine kinase (RIPK) 1, rat (rat (endogenous in PC12 and in rat primary hippocampal neurons)) (UniProt D3ZYL0); test: proximity ligation; Duolink In Situ PLA with anti-RIPK1 and anti-RIPK3 antibodies on fixed rat primary hippocampal neurons electroporated with Hrs siRNA

Sequences of proteins named here, by UniProt entry; tags and fusion partners are left off. A change or cut given only in a name is not applied to a line headed by its entry.
UniProt D3ZYL0: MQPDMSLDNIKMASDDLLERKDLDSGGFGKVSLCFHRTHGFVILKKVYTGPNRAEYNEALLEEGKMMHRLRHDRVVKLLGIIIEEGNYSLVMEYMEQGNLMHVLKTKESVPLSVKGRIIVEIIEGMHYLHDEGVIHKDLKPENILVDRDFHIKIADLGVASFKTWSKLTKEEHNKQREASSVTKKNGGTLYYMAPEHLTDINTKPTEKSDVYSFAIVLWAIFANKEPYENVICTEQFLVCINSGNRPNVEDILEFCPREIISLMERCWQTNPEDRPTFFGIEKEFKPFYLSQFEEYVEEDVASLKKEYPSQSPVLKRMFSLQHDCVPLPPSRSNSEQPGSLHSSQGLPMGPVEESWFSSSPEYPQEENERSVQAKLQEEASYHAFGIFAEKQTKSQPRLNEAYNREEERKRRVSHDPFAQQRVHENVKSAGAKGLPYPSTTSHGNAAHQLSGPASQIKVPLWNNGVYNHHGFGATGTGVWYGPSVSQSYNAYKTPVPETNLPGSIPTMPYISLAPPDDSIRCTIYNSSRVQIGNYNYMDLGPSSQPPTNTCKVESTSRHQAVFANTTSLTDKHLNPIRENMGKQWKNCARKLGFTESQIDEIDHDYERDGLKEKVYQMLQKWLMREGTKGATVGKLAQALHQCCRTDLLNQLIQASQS

binding [1]: binds
binding [2]: binds
B1: receptor-interacting serine/threonine kinase (RIPK) 3, rat (protein, UniProt Q9Z2P5 1-478)
chain: MSSVKLWLNGASSISLVGSEELENLGFVGKGGFGAVFRARHTAWNLDVAVKIVNSKKISREVKAMVNLRHENVLLLLGVTENLEWDYVYGPALVTGFMENGSLSGLLQPSCPRPWPLLCRLLEEVVLGMCYLHSLNPSLLHRDLKPSNVLLDPELHAKLADFGLSTFQGGSQSGSGSGSRDSGGTLAYLAPELLDNDGKASKASDVYSFGVLVWTVLAGREAEVVDKTSLIRGAVCNRQRRPPLTELPPDSPETPGLEGLKELMTHCWSSEPKDRPSFQDCESKTNNVYILVQDKVDAAVSKVKHYLSQYRSSDTKLSARESSQKGTEVDCPRETIVYEMLDRLHLEEPSGSVPERLTSLTERRGKEASFGHATPAGTSSDTLAGTPQIPHTLPSRGTTPRPAFTETPGPDPQRNQGDGRNSNPWYTWNAPNPMTGLQSIVLNNCSEVQIGQHNCMSVQPRTAFPKKEPAQFGRGRGW

Source: PMC4845015
